Assay results taken from article PMC9831982 (Nature Communications, 2023).
These are yes or no findings as the source states them, for the method shown. In cells and extracts the contact can be indirect. Binding calls can cover weak binding; strength is not graded here.

Protein sequences, listed by entry. Tags and fused reporters are not part of them. Lines headed by an entry give the natural chain unless they say otherwise; changes in a name come on top.
UniProt P53327: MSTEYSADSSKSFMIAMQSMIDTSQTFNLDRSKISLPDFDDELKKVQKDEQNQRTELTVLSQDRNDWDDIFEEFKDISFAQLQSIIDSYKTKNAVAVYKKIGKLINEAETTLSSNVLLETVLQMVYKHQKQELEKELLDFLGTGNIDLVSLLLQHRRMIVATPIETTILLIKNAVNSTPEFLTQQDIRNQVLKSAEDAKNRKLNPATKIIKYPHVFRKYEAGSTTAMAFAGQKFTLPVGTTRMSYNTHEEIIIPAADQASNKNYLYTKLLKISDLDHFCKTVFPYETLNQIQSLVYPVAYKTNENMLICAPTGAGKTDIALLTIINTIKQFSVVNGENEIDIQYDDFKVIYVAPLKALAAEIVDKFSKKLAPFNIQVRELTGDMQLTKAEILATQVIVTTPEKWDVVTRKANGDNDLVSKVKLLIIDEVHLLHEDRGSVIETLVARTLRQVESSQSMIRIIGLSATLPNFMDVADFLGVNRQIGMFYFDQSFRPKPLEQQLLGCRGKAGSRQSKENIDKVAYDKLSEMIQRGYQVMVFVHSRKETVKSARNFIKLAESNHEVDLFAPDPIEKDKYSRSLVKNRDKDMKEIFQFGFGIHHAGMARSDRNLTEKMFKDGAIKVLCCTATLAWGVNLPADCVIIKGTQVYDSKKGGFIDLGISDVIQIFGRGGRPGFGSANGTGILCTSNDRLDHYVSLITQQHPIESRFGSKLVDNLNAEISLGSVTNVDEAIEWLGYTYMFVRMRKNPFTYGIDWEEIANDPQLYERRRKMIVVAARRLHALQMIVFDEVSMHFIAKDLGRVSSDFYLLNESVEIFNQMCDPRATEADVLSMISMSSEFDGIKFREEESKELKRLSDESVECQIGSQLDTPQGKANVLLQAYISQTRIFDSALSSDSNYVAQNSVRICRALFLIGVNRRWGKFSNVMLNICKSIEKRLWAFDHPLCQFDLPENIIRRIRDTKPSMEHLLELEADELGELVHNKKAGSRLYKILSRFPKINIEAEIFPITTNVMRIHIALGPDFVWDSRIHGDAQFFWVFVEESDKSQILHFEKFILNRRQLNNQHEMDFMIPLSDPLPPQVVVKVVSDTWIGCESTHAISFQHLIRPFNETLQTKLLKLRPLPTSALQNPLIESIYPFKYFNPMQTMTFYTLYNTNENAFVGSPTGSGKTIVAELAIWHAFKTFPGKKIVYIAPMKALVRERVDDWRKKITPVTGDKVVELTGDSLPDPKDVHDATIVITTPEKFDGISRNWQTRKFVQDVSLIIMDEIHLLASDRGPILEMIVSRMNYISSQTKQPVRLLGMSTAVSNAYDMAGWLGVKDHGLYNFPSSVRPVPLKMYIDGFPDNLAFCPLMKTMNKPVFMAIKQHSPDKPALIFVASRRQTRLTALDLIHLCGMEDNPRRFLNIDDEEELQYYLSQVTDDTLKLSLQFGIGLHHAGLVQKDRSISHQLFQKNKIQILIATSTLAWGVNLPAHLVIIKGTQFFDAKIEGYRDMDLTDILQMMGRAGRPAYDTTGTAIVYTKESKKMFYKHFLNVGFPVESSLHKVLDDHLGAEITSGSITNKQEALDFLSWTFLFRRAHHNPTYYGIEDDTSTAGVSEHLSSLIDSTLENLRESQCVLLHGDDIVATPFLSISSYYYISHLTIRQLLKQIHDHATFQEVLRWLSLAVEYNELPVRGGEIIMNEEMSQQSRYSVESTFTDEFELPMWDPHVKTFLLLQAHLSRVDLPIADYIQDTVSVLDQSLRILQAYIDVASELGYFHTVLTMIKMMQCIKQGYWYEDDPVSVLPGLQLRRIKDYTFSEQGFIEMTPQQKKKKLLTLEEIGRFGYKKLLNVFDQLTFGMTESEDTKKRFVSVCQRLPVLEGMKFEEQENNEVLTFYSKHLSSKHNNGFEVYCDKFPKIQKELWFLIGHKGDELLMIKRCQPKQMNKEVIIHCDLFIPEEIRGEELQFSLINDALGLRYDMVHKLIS
UniProt P53137: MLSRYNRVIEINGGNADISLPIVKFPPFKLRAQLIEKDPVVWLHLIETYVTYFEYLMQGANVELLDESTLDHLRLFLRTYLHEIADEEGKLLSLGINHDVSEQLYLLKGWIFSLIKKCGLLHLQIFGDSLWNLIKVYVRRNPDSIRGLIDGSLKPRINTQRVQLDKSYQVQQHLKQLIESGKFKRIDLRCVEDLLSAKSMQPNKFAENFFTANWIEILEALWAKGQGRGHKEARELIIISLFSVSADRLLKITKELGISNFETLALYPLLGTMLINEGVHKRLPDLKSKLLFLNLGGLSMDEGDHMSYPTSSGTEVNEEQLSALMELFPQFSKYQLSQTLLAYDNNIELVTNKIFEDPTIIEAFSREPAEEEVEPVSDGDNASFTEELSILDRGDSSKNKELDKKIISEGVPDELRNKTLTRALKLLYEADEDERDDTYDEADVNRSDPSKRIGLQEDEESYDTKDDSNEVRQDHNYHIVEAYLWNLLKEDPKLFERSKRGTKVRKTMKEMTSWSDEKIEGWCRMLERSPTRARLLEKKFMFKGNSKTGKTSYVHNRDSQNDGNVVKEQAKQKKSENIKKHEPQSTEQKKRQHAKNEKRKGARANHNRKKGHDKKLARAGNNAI

Molecular target: Slh1-Flag-TEV-protein A (S. cerevisiae) (UniProt P53327)
Experiment: pull-down; RQT factors or mutants co-expressed in yeast; complex captured from the lysate via Slh1-Flag-TEV-protein A on IgG beads in RQT-R buffer (50 mM Tris pH 7.5, 100 mM NaCl, 2.5 mM MgCl2, 0.1% NP-40, 10% glycerol, 100 mM L-arginine); co-purified factors seen by CBB staining or anti-Flag blot

binding: binds
Substance: CUE domain-deleted mutant of Cue3 (Flag-tagged) (from UniProt P53137)
